Results are given in words; binding and its absence hold for the method and conditions named. In cells and extracts the contact can be indirect. Some results given as binding are weak or reduced against the parent protein; the word gives no strength.
Target: T1, RPGR, wild-type mouse retina (mouse (endogenous in mouse retina)) (UniProt Q9R0X5)
T1 sequence: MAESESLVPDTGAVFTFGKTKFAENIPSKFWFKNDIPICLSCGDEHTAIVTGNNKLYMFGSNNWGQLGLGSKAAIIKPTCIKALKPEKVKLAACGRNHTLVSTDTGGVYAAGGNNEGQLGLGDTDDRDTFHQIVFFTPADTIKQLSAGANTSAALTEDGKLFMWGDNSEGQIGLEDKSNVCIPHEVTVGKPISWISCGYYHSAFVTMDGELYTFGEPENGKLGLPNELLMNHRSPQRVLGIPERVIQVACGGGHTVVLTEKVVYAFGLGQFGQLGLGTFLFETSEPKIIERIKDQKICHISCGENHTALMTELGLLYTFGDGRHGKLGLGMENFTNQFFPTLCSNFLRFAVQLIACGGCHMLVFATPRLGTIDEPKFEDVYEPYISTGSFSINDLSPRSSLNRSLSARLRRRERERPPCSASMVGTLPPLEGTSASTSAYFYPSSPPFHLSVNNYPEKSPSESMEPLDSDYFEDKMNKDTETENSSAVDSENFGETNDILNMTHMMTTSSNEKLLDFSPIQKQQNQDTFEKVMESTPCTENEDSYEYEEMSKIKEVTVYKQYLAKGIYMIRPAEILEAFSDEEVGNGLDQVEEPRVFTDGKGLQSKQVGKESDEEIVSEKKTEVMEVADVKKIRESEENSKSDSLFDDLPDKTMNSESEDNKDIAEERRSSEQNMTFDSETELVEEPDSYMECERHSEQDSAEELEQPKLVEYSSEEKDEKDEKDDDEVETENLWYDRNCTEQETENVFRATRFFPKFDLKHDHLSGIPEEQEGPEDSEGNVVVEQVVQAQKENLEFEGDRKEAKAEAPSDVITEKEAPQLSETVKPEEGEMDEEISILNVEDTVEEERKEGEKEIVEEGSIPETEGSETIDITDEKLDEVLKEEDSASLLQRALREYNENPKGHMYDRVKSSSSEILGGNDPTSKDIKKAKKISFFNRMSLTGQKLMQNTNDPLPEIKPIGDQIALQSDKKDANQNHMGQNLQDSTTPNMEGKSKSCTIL
Experiment: co-IP; protein lysates from wt or Rpgr-ko mouse retinas, IP with RPGR antibody, immunoblot with NPHP4 antibody

binding: binds
B1: NPHP4, mouse retina (protein, UniProt P59240 1-1425)
chain: MGDWHRAFTQNTLVPPHPQRARQLGKESTAFQCILKWLDGPLIKQGILDMLSELECHLRVTLFDVTYKHFFGRTWKTTVKPTNQPSKQPPRITFNEPLYFHTTLSHPSIVAVVEVVTEGRKRDGTLQLLSCGFGILRIFGNKPESPTSAAQDKRLRLYHGTPRALLHPLLQDPIEQNKFMRLMENCSLQYTLKPHPPLEPAFHLLPENLLVSGFQQIPGLLPPHGDTGDALRKPRFQKPTTWHLDDLFFTLYPSLEKFEEELVQLLISDREGVGLLDSGTLEVLERRLHVCVHNGLGFVQRPQVVVLVPEMDVALTRSASFSRKISASSKNSSGNQALVLRSHLRLPEMVSHPAFAIVFQLEYVFNSPSGADGGASSPTSISSVACMHMVRWAVWNPDLEVGPGKVTLPLQGGVQQNPSRCLVYKVPSASMSSEEVKQVESGTIQFQFSLSSDGPTEHANGPRVGRRSSRKMPASPSGTPAPAARDLAATQDSPVGPGLSLSQLTASPLSPALQSSSKPPLQPPDSSQSPEGPQLQAESVLESRVSHLEADLSQPASLQGTPAVEHLQELPFTPLHAPIVVGAQTRSSRSQLSRAAMVLLQSSGFPEILDASQQPVEAVNPIDPVRFNPQKEESDCLRGNEIVLQFLAFSRAAQDCPGTPWPQTVYFTFQFYRFPPETTPRLQLVKLDGTGKSGSGSLSHILVPINKDGSFDAGSPGLQLRYMVDPGFLKPGEQRWFAHYLAAQTLQVDVWDGDSLLLIGSAGVQMKHLLRQGRPAVQVSHELEVVATEYEQEMMAVSGDVAGFGSVKPIGVHTVVKGRLHLTLANVGHACEPRARGSNLLPPSRSRVISNDGASFFSGGSLLIPGGPKRKRVVQAQRLADVDSELAAMLLTHTRAGQGPQAAGQEADAVHKRKLERMRLVRLQEAGGDSDSRRISLLAQHSVRAQHSRDLQVIDAYRERTKAESIAGVLSQAITTHHTLYATLGTAEFFEFALKNPHNTQHTVAIEIDSPELSIILDSQEWRYFKEATGLHTPLEEDMFHLRGSLAPQLYLRPRETAHIPLKFQSFSVGPLAPTQAPAEVITEKDAESGPLWKCSAMPTKHAKVLFRVETGQLIAVLCLTVEPQPHVVDQVFRFYHPELTFLKKAIRLPPWHTLPGAPVGMPGEDPPVHVRCSDPNVICEAQNVGPGEPRDVFLKVASGPSPEIKDFFVVIYADRWLAVPVQTWQVCLHSLQRVDVSCVAGQLTRLSLVLRGTQTVRKVRAFTSHPQELKTDPAGVFVLPPHGVQDLHVGVRPRRAGSRFVHLNLVDIDYHQLVASWLVCLSCRQPLISKAFEITMAAGDEKGTNKRITYTNPYPSRRTYRLHSDRPELLRFKEDSFQVAGGETYTIGLRFLPSGSAGQEEILIYINDHEDKNEETFCVKVLYQ
